Like-named read-outs stand apart in the source and are kept apart here.
[1] = tablet with hydroxypropyl-beta-cyclodextrin, water without sodium lauryl sulfate (FIG. 20)

SMILES	release profile compared with other tablets / Procardia XL (PEO tablets, in vitro release)	duration of dissolution of released drug after polymer completely dissolves (PEO tablets)	lag time of release (PEO tablets)	shape of release profile (PEO tablets)	lag time of release (PEO tablets, listed as nifidipine)	release at leveling off (equilibrium concentration) [1]	release up to which profile is linear (zero order) [1]
COC(=O)C1=C(C)NC(C)=C(C(=O)OC)C1c1ccccc1[N+](=O)[O-] [granulated nifedipine, nifedipine]	performed similarly to a 30 mg Procardia XL™ tablet						
COC(=O)C1=C(C)NC(C)=C(C(=O)OC)C1c1ccccc1[N+](=O)[O-] [nifedipine]		approximately three hours	approximately one hour	sigmoidal pattern	a lag time was observed	45-47%	up to 30%
